Experimental data: PubChem BioAssay AID686938 (Drosophila RNAi Screening Center, 2013)
Assay: 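Knock-downs reducing store-operated calcium influx in Drosophila cells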 (primary screen). Cell system: Drosophila S2R+ cells. Knock-down reagent: long dsRNA against Drosophila genes, about 0.25 µg dsRNA per well, roughly 10,000 cells. Duration: 5 days of knock-down before the calcium assay. Challenge: thapsigargin (SERCA pump blocker) to empty calcium stores; entry signal taken 4 min after adding it. Read-out: 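Per-well fluo-4 fluorescence in two replicates, unnormalised, measured in resting cells and 4 min after store depletion by the SERCA blocker thapsigargin; ratio of the two present in few wells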. Scale: calcium entry signal: higher = stronger calcium signal after store depletion; resting calcium signal: higher = higher resting calcium signal. Active means: 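Called when the plate z-score of the entry-to-rest ratio, mean of duplicates, falls below −3; wells with low overall dye signal (Fmax z below −2) or more than five off-targets excluded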. Calls: active = strongly reduced calcium entry; inactive = no strong reduction.
In all, the deposit lists about 23,000 reagents; this is a random part of those with a known target gene and a result. Of all reagents, 75 (0.33%) were called active. 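Raw plate signals without normalisation; calls rest on plate z-scores that were not deposited; ratio present for only 364 wells.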 Reagents against one gene are numbered here. A plus sign joins genes that one reagent is predicted to hit. The record does not give: the dose of the treatment.

gene knocked down | dsRNA no. | calcium entry signal, replicate 1 (fluorescence units) | calcium entry signal, replicate 2 (fluorescence units) | resting calcium signal, replicate 1 (fluorescence units) | resting calcium signal, replicate 2 (fluorescence units) | outcome
CG14834 | 1 | 2.11e7 | 3.37e7 | 1.02e7 | 1.34e7 | inactive
CG15894 | 1 | 2.29e7 | 3.32e7 | 1.14e7 | 1.49e7 | inactive
CG15894 | 2 | 2.06e7 | 3.38e7 | 1.18e7 | 1.55e7 | inactive
Drak | 1 | 3.59e7 | 6.38e7 | 2.16e7 | 3.37e7 | inactive
Drak | 2 | 3.10e7 | 3.34e7 | 1.56e7 | 1.62e7 | inactive
Apc | 1 | 3.72e7 | 5.91e7 | 1.90e7 | 2.56e7 | inactive
CG9044 | 1 | 4.82e7 | – | 2.54e7 | – | inactive
MED1 | 1 | 2.72e7 | 3.12e7 | 1.36e7 | 2.37e7 | inactive
CG18294 | 1 | 2.89e7 | 5.31e7 | 1.42e7 | 2.19e7 | inactive
S-Lap8 | 1 | 3.78e7 | 4.63e7 | 1.77e7 | 2.36e7 | inactive
S-Lap8 | 2 | 3.73e7 | 4.24e7 | 2.04e7 | 1.81e7 | inactive
MetRS-m | 1 | 3.16e7 | 3.65e7 | 1.35e7 | 1.62e7 | inactive
MetRS-m | 2 | 2.16e7 | 2.71e7 | 1.08e7 | 4.68e7 | inactive
JIL-1 | 1 | 3.79e7 | 3.28e7 | 2.44e7 | 1.29e7 | inactive
tral | 1 | 5.14e7 | 4.27e7 | 3.57e7 | 2.02e7 | inactive
CG13766 | 1 | 2.56e7 | 3.10e7 | 1.32e7 | 1.38e7 | inactive
CG11413 + CG4622 | 1 | 4.22e7 | 4.92e7 | 2.07e7 | 2.07e7 | inactive
polo | 1 | 3.05e7 | 7.25e7 | 1.47e7 | 3.30e7 | inactive
polo | 2 | 2.32e7 | 3.98e7 | 1.64e7 | 2.52e7 | inactive
sturkopf | 1 | 2.95e7 | 2.75e7 | 1.34e7 | 1.36e7 | inactive
CG34228 | 1 | 4.62e7 | 5.42e7 | 2.43e7 | 2.36e7 | inactive
TwdlC | 1 | 3.33e7 | 4.36e7 | 1.66e7 | 1.95e7 | inactive
CG32829 | 1 | 3.16e7 | 3.89e7 | 1.77e7 | 1.96e7 | inactive
CG32829 | 2 | 2.91e7 | 3.68e7 | 1.45e7 | 1.74e7 | inactive
Spn43Aa | 1 | 4.39e7 | – | 2.25e7 | – | inactive
CG15549 | 1 | 4.08e7 | 6.30e7 | 2.07e7 | 2.65e7 | inactive
CG33111 | 1 | 4.51e7 | 6.04e7 | 2.10e7 | 2.51e7 | inactive
CG33111 | 2 | 5.41e7 | 6.47e7 | 2.37e7 | 2.63e7 | inactive
CG43078 | 1 | 3.80e7 | 3.09e7 | 2.51e7 | 1.36e7 | inactive
CG43078 | 2 | 3.85e7 | 2.93e7 | 2.48e7 | 1.22e7 | inactive
CG43078 | 3 | 3.37e7 | 3.99e7 | 2.05e7 | 1.72e7 | inactive
CG43078 | 4 | 3.66e7 | 4.42e7 | 1.71e7 | 2.50e7 | inactive
CG10674 | 1 | 2.65e7 | 4.34e7 | 1.38e7 | 1.97e7 | inactive
tor | 1 | 3.72e7 | 5.12e7 | 1.75e7 | 2.12e7 | inactive
TwdlE | 1 | 2.47e7 | 3.26e7 | 1.08e7 | 1.45e7 | inactive
Obp50d | 1 | 5.89e7 | 4.62e7 | 3.01e7 | 2.02e7 | inactive
Orcokinin | 1 | 4.09e7 | 4.11e7 | 2.06e7 | 2.02e7 | inactive
Prosbeta4 | 1 | 2.17e7 | 1.22e7 | 1.45e7 | 8.77e6 | inactive
wts | 1 | 2.69e7 | 4.56e7 | 1.79e7 | 2.36e7 | inactive
wts | 2 | 4.93e7 | 3.43e7 | 2.62e7 | 1.47e7 | inactive

Taken from above:
Under “calcium entry signal, replicate 1 (fluorescence units)”, CG33111 #2 shows 5.41e7
TwdlC, resting calcium signal, replicate 2 (fluorescence units) = 1.95e7
CG10674, outcome → inactive
Result for CG33111 #1 in “outcome”: inactive
Value for Obp50d in “calcium entry signal, replicate 2 (fluorescence units)”: 4.62e7
